Measurements as given in publication doi:10.1101/2022.05.11.491529.

Amino acid sequences for entries named in this document (tags omitted). A change or cut given only in a name is not applied to a line headed by its entry.
UniProt O08579: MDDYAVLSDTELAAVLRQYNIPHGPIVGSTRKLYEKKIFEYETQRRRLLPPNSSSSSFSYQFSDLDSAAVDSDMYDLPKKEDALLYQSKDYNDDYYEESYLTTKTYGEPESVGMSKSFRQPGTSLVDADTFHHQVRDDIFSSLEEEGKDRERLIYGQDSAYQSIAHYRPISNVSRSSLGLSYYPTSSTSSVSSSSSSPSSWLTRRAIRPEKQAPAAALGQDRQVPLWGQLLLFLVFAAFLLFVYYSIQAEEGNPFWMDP
UniProt Q3U9G9: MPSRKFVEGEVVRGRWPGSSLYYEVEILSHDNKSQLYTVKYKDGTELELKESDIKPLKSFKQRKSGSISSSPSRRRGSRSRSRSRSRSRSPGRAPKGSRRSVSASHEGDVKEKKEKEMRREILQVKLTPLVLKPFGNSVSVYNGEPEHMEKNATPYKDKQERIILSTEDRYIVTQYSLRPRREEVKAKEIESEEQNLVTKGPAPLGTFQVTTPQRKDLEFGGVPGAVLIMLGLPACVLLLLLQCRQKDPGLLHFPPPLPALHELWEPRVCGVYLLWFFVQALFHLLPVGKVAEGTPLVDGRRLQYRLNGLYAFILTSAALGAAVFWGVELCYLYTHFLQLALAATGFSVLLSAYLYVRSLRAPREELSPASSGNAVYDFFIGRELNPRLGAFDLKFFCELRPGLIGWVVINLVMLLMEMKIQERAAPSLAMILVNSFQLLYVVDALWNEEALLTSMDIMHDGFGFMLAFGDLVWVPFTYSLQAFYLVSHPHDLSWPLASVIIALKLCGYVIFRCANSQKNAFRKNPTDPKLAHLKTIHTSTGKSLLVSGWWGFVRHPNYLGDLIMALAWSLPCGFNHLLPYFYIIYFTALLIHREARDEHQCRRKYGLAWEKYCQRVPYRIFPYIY
UniProt Q8VEL0: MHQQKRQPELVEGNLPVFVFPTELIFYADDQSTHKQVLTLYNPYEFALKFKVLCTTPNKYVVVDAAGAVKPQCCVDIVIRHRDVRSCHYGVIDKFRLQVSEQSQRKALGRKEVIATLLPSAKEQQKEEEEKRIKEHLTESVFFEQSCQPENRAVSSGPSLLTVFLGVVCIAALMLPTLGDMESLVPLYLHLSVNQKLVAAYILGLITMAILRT
UniProt Q61686: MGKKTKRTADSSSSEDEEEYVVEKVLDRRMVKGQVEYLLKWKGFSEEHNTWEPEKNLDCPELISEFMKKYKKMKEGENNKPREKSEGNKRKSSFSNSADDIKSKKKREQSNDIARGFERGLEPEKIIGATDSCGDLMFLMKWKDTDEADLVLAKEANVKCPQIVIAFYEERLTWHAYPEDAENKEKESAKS
UniProt P23198: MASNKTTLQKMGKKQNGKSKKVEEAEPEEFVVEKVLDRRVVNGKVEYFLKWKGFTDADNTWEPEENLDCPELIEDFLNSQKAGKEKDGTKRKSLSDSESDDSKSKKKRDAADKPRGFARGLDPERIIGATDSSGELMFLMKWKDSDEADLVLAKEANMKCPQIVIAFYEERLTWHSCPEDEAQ
UniProt Q6DVA0: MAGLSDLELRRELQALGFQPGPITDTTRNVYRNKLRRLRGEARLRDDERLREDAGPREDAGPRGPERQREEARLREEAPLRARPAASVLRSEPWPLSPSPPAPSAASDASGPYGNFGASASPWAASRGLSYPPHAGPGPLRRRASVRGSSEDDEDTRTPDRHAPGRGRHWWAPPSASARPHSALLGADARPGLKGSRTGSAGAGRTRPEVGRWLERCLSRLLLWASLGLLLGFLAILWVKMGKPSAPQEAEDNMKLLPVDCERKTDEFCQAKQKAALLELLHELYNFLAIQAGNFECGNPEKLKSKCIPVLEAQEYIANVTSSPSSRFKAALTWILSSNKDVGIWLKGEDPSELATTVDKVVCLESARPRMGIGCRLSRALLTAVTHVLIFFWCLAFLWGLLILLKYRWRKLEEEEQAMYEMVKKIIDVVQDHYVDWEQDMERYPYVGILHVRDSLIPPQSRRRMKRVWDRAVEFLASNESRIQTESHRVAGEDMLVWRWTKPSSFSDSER
UniProt Q921T2: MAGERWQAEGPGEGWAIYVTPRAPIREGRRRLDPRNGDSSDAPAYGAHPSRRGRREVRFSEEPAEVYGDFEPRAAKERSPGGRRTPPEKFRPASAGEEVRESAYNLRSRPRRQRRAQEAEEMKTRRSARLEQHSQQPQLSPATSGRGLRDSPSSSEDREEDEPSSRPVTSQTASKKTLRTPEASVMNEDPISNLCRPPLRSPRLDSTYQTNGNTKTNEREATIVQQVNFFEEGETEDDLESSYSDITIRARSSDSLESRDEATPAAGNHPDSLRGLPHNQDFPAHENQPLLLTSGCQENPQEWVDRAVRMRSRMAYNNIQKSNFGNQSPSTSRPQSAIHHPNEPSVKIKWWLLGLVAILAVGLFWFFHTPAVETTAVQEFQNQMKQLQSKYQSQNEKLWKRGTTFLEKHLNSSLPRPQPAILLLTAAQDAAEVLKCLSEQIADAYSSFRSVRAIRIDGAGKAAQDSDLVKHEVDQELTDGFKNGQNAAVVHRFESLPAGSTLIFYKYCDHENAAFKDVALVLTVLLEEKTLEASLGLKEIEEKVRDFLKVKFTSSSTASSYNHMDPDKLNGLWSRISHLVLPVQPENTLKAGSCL

Tests used:
[1] = target: V5-tagged TbID fused to the N-terminus of emerin (mouse (cDNA library from C3H/10T1/2 cells)) (UniProt O08579); assay: proximity labelling
[2] = target: V5-tagged TbID fused to the N-terminus of LBR (mouse (cDNA library from C3H/10T1/2 cells)) (UniProt Q3U9G9); assay: proximity labelling

binding [1]: binds
Molecule: Mospd1 (from UniProt Q8VEL0 1-213)

binding [2]: binds
Molecule: HP1-α (Cbx5) (from UniProt Q61686 1-191)

binding [2]: binds
Molecule: HP1-γ (Cbx3) (from UniProt P23198 1-183)

binding [2]: no binding
binding [1]: binds
Molecule: Lemd2 (from UniProt Q6DVA0 1-511)

binding [1]: binds
Molecule: TOR1AIP1 (from UniProt Q921T2 1-595)

binding [2]: binds
binding [1]: binds
B1: Bfar (protein, UniProt Q8R079 1-450)
chain: MEEPQKNDLSMREQEEEHPVRSSGPQISVSEFSCHCCYDTLVNPTTLNCGHSFCRHCLALWWMSSKKTECPECREKWEGFPKVNILLRDAIEKLFPDAIRMRVEDIQQNNDVVQSLAAFQKYGNDQNPLAPSTGRVNPQRGGGFFSGVLTALTGVAVILLVYHWRSRESEHGLLVHKAVDKWTMEEVVLWLEQLGPWASLYRDRFLSERVNGRLLLTLTEEEFSRAPYTIENSSHRRVILTELERVRALGVKPPQNLWEYKAVNPGRSLFLLYALKSSPRLGLLYLYLFDYTDCFLPFIHTICPLQENSSGEDIFTKLLDLREPTWKQWREFLVKYSFLPYQLIAEFAWDWLEVHYWTSRFLIVNAVLLSVLELFSFWRIWSRSELKTVPQRMWSHFWKVSTQGLFMAMFWPLIPQFVCNCLFYWALYFNPIINIDLVVKEVRRLETQVL

binding [1]: binds
B2: VAPA (protein, UniProt Q9WV55 1-249)
chain: MASASGAMAKHEQILVLDPPSDLKFKGPFTDVVTTNLKLQNPSDRKVCFKVKTTAPRRYCVRPNSGIIDPGSIVTVSVMLQPFDYDPNEKSKHKFMVQTIFAPPNISDMEAVWKEAKPDELMDSKLRCVFEMPNENDKLNDMEPSKAVPLNASKQDGPLPKPHSVSLNDTETRKLMEECKRLQGEMMKLSEENRHLRDEGLRLRKVAHSDKPGSTSAVSFRDNVTSPLPSLLVVIAAIFIGFFLGKFIL

binding [2]: binds
B3: lamin B1 (protein, UniProt P14733 1-588)
chain: MATATPVQQQRAGSRASAPATPLSPTRLSRLQEKEELRELNDRLAVYIDKVRSLETENSALQLQVTEREEVRGRELTGLKALYETELADARRALDDTARERAKLQIELGKFKAEHDQLLLNYAKKESDLSGAQIKLREYEAALNSKDAALATALGDKKSLEGDLEDLKDQIAQLEASLSAAKKQLADETLLKVDLENRCQSLTEDLEFRKNMYEEEINETRRKHETRLVEVDSGRQIEYEYKLAQALHEMREQHDAQVRLYKEELEQTYHAKLENARLSSEMNTSTVNSAREELMESRMRIESLSSQLSNLQKESRACLERIQELEDMLAKERDNSRRMLSDREREMAEIRDQMQQQLSDYEQLLDVKLALDMEISAYRKLLEGEEERLKLSPSPSSRVTVSRASSSRSVRTTRGKRKRVDVEESEASSSVSISHSASATGNVCIEEIDVDGKFIRLKNTSEQDQPMGGWEMIRKIGDTSVSYKYTSRYVLKAGQTVTVWAANAGVTASPPTDLIWKNQNSWGTGEDVKVILKNSQGEEVAQRSTVFKTTIPEEEEEEEEEPIGVAVEEERFHQQGAPRASNKSCAIM

binding [2]: binds
binding [1]: binds
B4: Sun1 (protein, UniProt Q9D666 1-913)
chain: MDFSRLHTYTPPQCVPENTGYTYALSSSYSSDALDFETEHKLEPVFDSPRMSRRSLRLVTTASYSSGDSQAIDSHISTSRATPAKGRETRTVKQRRSASKPAFSINHLSGKGLSSSTSHDSSCSLRSATVLRHPVLDESLIREQTKVDHFWGLDDDGDLKGGNKAATQGNGELAAEVASSNGYTCRDCRMLSARTDALTAHSAIHGTTSRVYSRDRTLKPRGVSFYLDRTLWLAKSTSSSFASFIVQLFQVVLMKLNFETYKLKGYESRAYESQSYETKSHESEAHLGHCGRMTAGELSRVDGESLCDDCKGKKHLEIHTATHSQLPQPHRVAGAMGRLCIYTGDLLVQALRRTRAAGWSVAEAVWSVLWLAVSAPGKAASGTFWWLGSGWYQFVTLISWLNVFLLTRCLRNICKVFVLLLPLLLLLGAGVSLWGQGNFFSLLPVLNWTAMQPTQRVDDSKGMHRPGPLPPSPPPKVDHKASQWPQESDMGQKVASLSAQCHNHDERLAELTVLLQKLQIRVDQVDDGREGLSLWVKNVVGQHLQEMGTIEPPDAKTDFMTFHHDHEVRLSNLEDVLRKLTEKSEAIQKELEETKLKAGSRDEEQPLLDRVQHLELELNLLKSQLSDWQHLKTSCEQAGARIQETVQLMFSEDQQGGSLEWLLEKLSSRFVSKDELQVLLHDLELKLLQNITHHITVTGQAPTSEAIVSAVNQAGISGITEAQAHIIVNNALKLYSQDKTGMVDFALESGGGSILSTRCSETYETKTALLSLFGVPLWYFSQSPRVVIQPDIYPGNCWAFKGSQGYLVVRLSMKIYPTTFTMEHIPKTLSPTGNISSAPKDFAVYGLETEYQEEGQPLGRFTYDQEGDSLQMFHTLERPDQAFQIVELRVLSNWGHPEYTCLYRFRVHGEPIQ

binding [2]: binds
binding [1]: binds
B5: Lsg1 (protein, UniProt Q3UM18 1-644)
chain: MGRRRAPGGGSLGRVLIRQQTQRSRSHRHTDSWLHTSELNDGYDWGRLNLQSVTEQSSLEDFLATAELAGTEFVAEKLNIKFVPPEARTGLLSFEESQRIKKLHEENRQFLCIPRRPNWDRKTSPEELKQAEKDNFLKWRRQLVRLEEEQKLILTPFERNLDFWRQLWRVIERSDIVVQIVDARNPLLFRCEDLECYVKEIDAAKENVILINKADLLTAEQRFAWAVHFEKEGVKVIFWSALAETDHLNGDLKEEVDSVAGDTNKTESESSSLDANEIPHRDLISLSEESASDSGDSKYEDCQEDEEEDWQTCSEEDSVPEEEEGCNADSETQNRKNAENQQVNNDSYLVSKQELLELFKKLHTGKKVKDGQLTVGLVGYPNVGKSSTINTIMGNKKVSVSATPGHTKHFQTLYVEPGLCLCDCPGLVMPSFVSTKAEMICNGILPIDQMRDHVPPVSLVCQNIPRRVLEVTYGINIIKPREDEDPYRPPTSEELLTAYGCMRGFMTAHGQPDQPRSARYILKDYVGGKLLYCHPPPGKDPVAFQHQHQQLLESKVKGGELRLQPGKGRKAKQIENVVDKTFFHQENVRALTKGVQAVMGYKPGHGLVTAAAASAENVPGKPWKKHGNRNKKEKSRRLYKHLDV

binding [2]: binds
binding [1]: binds
B6: Cgrrf1 (protein, UniProt Q8BMJ7 1-332)
chain: MAAVFLVTLYEYSPLFYIAVVFTCFIVTTGLVLGWFGWDVPVILRNSEETQFSTRAFKKQMRQVKNPFGLEITNSSAASLATGMALRTDCLEDSRLTCYWGCSVQKLYEALQKHAYCFRISTPQALEEALYSDYLHREQYFIKKHSKEEIYCQLPSDTEIEDFGPVPRSRYPLVALLTLADEDDREIYDIISMVSVIHIPDKTYKLPCRILYQYLILAQGQFYDLKQLFMSANNSPPPSNDESPEDRSVEQSLLEKVGLAGNDGDPVEESSRDCVVCQNGGVNWVLLPCRHACLCDSCVRYFKQCPMCRQFVQESFALCGQKEPDKDLLETS

binding [2]: no binding
binding [1]: binds
B7: Nrm (protein, UniProt Q8VC65 1-262)
chain: MAPALLLVPAALASFILAFGTGVEFVRFTSLRPLLGGIPESGGPDARHGWLAALQDRSILASLAWDLCLLLLFVVQHSLMATEAVKAWTSRYFGVLQRSLYVACTALALQLVMRYWETTPRGPVLWEARAEPWATWVPLLCFVLHVVSWLLIFSILLVFDYAELMGLKQVYYHVLGLGEPLSLKSPRALRLFSHLRHPVCVELLTVLWVVPTLGTDRLLLALLFTLYLGLAHGLDQQDLRYLRSQLQRKLHLLSRPQDGEAE

binding [1]: binds
B8: Lemd3/MAN1 (protein, UniProt Q9WU40 1-921)
chain: MAAATAAAAPQQLSDEELFSQLRRYGLSPGPVTESTRPVYLKKLKKLREEEQQQQQQQQQQQHRAGGRGNKTRNSNNNNTATAMGGRPGSGDLAYLRSPAGLGRLSASAAESPVAGGSGGAAAVPAAGSKVLLGFSSDESDVEASPREQAGGGGGGGARRDRAALQYRGLRAPPAPPAAGEVTGGHPGERRKPHSWWGARRPAGPEPQPPAAGSDGAAEDADEELADGEDRDPEAEEPLWASRAVNGSRLLPYSSCREHYSDSEEEEEEGEEDGDVAPARQVLKDDSLARHRPRRSHSKPFSALTAKSGGSRQETSVQGGGALAMNDRAAAAGSLDRSRNLEEAAAEPGGGGGGGCGCDPVDSIPRYRAGAKKLAPLLSPPSPDGDSTLESPTGPLLKTNNHIGGGAFGVDSPGLYANSLPPGATAAAAPGTLRINHANHTGSNHTYLKTAYGKPKLCEPEEELLQQFKREEVSPTGSFSAHYLSMFLLTAACLFFLILGLTYLGMRGTGVPEDGGLIKNPFDETFGKIQESEKNLLMSTLYKLHDRLAQIAGDHECGSSSQRMLSVQEAAAYLKNLGPEYEDVFNTSLLWIFKNGKDVGIRCVGYGPEEDLTNITDVQFLQSTRPQMPFWCRFRRAFITVTHRLLLLCLGVVLVCVALRYMRYRWTKEEEETRQMYDMVVKIIDVLRSHNEACQETKDLQPYMPLPHVRDSLIQPQDRKKMKKVWDRAVDFLAANESRVRTETRRVGGADFLVWRWIQPSASCDKTLVIPSKVWQGQAFHLDRRNSPPNSLTPCLKIRNMFDPVMEIGDHWHLAIQEAILEKCSDNDGIVHIAVDRNSREGCVYVKCLSPEYAGKAFKALHGSWFDGKLVTVKYLRLDRYHHRFPQALTCNTPLKPANKHMNSLSHLRLRTGLANSQGSS

binding [2]: binds
binding [1]: binds
B9: Rnf185 (protein, UniProt Q91YT2 1-192)
chain: MASKGPSASASTENSNAGGPSGSSNGTGESGGQDSTFECNICLDTAKDAVISLCGHLFCWPCLHQWLETRPNRQVCPVCKAGISRDKVIPLYGRGSTGQQDPREKTPPRPQGQRPEPENRGGFQGFGFGDGGFQMSFGIGAFPFGIFATAFNINDGRPPPAVPGTPQYVDEQFLSRLFLFVALVIMFWLLIA

No constants are given. Whether binding was seen depends on the method and setting. Binding seen in cells or lysates may run through a third protein. These calls come from enrichment with a bait or labelling near it, and not all partners need be listed. For part of these data: No binding means not detected with the bait. Each block holds one molecule with its values, some of them ahead of it.
